Literature values in patent publication US20230181556A1, “USE OF PSYCHOTROPIC DRUGS FOR THE TREATMENT OF CORONAVIRUS INFECTIONS” (priority 2020, published 2023).

By UniProt entry, the sequences of proteins in these tests, tags left out. Residues count along the entry.
UniProt Q9BYF1, 18-805: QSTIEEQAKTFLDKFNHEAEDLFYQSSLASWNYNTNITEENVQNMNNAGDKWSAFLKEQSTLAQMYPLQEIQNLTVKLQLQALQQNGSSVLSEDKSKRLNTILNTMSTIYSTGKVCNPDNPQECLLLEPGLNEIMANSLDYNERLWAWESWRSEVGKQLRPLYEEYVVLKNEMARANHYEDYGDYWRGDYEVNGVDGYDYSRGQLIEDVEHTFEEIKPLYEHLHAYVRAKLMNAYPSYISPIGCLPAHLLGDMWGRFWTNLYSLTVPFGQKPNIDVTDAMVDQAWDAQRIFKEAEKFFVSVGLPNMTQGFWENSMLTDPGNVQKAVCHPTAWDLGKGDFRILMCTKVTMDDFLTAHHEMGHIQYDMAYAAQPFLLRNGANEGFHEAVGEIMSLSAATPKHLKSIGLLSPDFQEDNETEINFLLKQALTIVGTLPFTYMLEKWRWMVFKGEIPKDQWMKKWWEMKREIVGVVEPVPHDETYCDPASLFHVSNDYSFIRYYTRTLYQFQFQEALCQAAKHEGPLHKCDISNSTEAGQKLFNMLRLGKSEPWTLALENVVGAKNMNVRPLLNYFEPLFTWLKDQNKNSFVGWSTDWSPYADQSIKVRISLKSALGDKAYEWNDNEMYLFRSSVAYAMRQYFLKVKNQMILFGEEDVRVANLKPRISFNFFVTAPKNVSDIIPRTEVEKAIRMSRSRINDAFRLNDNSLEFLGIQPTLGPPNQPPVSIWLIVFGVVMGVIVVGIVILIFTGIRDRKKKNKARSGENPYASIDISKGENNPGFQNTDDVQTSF

Legend:
[1] = tested on: viruses as listed per drug; settings: virus or effect named in the literature; cited from earlier work
[2] = target: spike protein-ACE2 interaction (Homo sapiens, UniProt Q9BYF1); settings: Hou et al., Chemico-Biological Interactions 338 (2021) 109420; cited from earlier work

SMILES	Examples of published in vitro antiviral activity [1]	block of spike protein-ACE2 interaction [2]
CN1CCC[C@@H]1CCO[C@](C)(c1ccccc1)c1ccc(Cl)cc1 [Clemastine]	SARS-CoV-2	–
Clc1ccc2c(c1)CCc1cccnc1C2=C1CCNCC1 [Desloratadine]	–	efficient to block spike protein-ACE2 interaction
